Here are results for 24 molecules from US20170129926A1 (ABCLON, published 2017).

Sequences of proteins named here, by UniProt entry; tags and fusion partners are left off. Residues count along the entry.
UniProt P05231, 30-212 limits assumed: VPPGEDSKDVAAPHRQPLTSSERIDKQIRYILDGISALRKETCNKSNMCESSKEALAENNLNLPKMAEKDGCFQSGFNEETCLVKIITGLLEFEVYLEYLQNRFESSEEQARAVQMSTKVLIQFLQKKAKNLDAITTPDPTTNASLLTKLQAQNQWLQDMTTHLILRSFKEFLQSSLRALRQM

For this test, the target named is T1, human IL-6 (human, UniProt P05231 30-212).
T1 construct: recombinant, bought (Peprotech 200-06; R&D Systems 206-IL/CF); biotinylated in the ELISAs; also called hIL-6; rhIL-6
Description: ELISA, captured Z-ABD, biotin-hIL-6 titrated. For orientation: ELISA stands for enzyme-linked immunosorbent assay.

B1: Z14720 (designed binder)
chain: AQHDEALEVDAKYAKEEYYAWWEIHKLPNLTVDQMAAFITKLFDDPSQSSELLSEAKKLNDSQAPKVDYVLAEAKVLANRELDKYGVSDYYKNLINNAKTVEGVKALIDEILAALPYVPG
notes: domain: GA3; periplasmic ABD fusion
Broadly, the EC50 is the concentration at which the effect is half-maximal. A high value points to lower potency in that assay. As to B1, the EC50 amounted to 0.22 nM.

B2: Z14746 (designed binder)
chain: AQHDEALEVDAKYAKEERAAWTEIHLLPNLTVEQMAAFITKLFDDPSQSSELLSEAKKLNDSQAPKVDYVLAEAKVLANRELDKYGVSDYYKNLINNAKTVEGVKALIDEILAALPYVPG
notes: as for B1
In turn, B2 yielded an EC50 of 0.28 nM.

B3: Z14929 (designed binder)
chain: AQHDEALEVDAKYAKEEKEAWYEIHLLPNLTVSQMAAFITKLFDDPSQSSELLSEAKKLNDSQAPKVDYVLAEAKVLANRELDKYGVSDYYKNLINNAKTVEGVKALIDEILAALPYVPG
notes: as for B1
On to B3, for which a half-maximal effect (EC50) was put at 0.21 nM.

B4: Z14722 (designed binder)
chain: AQHDEALEVDAKYAKEEAVAWKEIHILPNLTVSQMAAFITKLFDDPSQSSELLSEAKKLNDSQAPKVDYVLAEAKVLANRELDKYGVSDYYKNLINNAKTVEGVKALIDEILAALPYVPG
notes: as for B1
For B4, the response was half-maximal at 0.32 nM (EC50).

B5: Z14990 (designed binder)
chain: AQHDEALEVDAKYAKEEYDAWYEIHTLPNLTVDQMAAFISKLFDDPSQSSELLSEAKKLNDSQAPKVDYVLAEAKVLANRELDKYGVSDYYKNLINNAKTVEGVKALIDEILAALPYVPG
notes: as for B1
In turn, B5 returned an EC50 of 0.25 nM.

B6: Z14782 (designed binder)
chain: AQHDEALEVDAKYAKEEAKAWMEIHLLPNLTIDQMAAFITKLFDDPSQSSELLSEAKKLNDSQAPKVDYVLAEAKVLANRELDKYGVSDYYKNLINNAKTVEGVKALIDEILAALPYVPG
notes: as for B1
As to B6, the half-maximal effective concentration (EC50) came out at 0.24 nM.

B7: Z14788 (designed binder)
chain: AQHDEALEVDAKYAKEEKAAWNEIHKLPNLTVDQMAAFITKLFDDPSQSSELLSEAKKLNDSQAPKVDYVLAEAKVLANRELDKYGVSDYYKNLINNAKTVEGVKALIDEILAALPYVPG
notes: as for B1
Regarding B7, the EC50 came to 0.3 nM.

B8: Z14888 (designed binder)
chain: AQHDEALEVDAKYAKEEAFAWREIHLLPNLTIDQMAAFITKLFDDPSQSSELLSEAKKLNDSQAPKVDYVLAEAKVLANRELDKYGVSDYYKNLINNAKTVEGVKALIDEILAALPYVPG
notes: as for B1
On to B8, for which the EC50 is 0.22 nM.

B9: Z14783 (designed binder)
chain: AQHDEALEVDAKYAKEEKAAWYEIHLLPNLTVDQIAAFITKLFDDPSQSSELLSEAKKLNDSQAPKVDYVLAEAKVLANRELDKYGVSDYYKNLINNAKTVEGVKALIDEILAALPYVPG
notes: as for B1
In the case of B9, the EC50 stood at 0.24 nM.

B10: Z14867 (designed binder)
chain: AQHDEALEVDAKYAKEEAIAWHEIHVLPNLTVDQIAAFITKLFDDPSQSSELLSEAKKLNDSQAPKVDYVLAEAKVLANRELDKYGVSDYYKNLINNAKTVEGVKALIDEILAALPYVPG
notes: as for B1
Regarding B10, the EC50 turned out to be 0.26 nM.

B11: Z14976 (designed binder)
chain: AQHDEALEVDAKYAKEERKAWYEIHLLPNLTVEQMAAFITKLFDDPSQSSELLSEAKKLNDSQAPKVDYVLAEAKVLANRELDKYGVSDYYKNLINNAKTVEGVKALIDEILAALPYVPG
notes: as for B1
The molecule B11 yielded an EC50 of 0.16 nM.

B12: Z14984 (designed binder)
chain: AQHDEALEVDAKYAKEEKQAWREIHLLPNLTIDQMAAFITKLFDDPSQSSELLSEAKKLNDSQAPKVDYVLAEAKVLANRELDKYGVSDYYKNLINNAKTVEGVKALIDEILAALPYVPG
notes: as for B1
As to B12, the response was half-maximal at 0.16 nM (EC50).

B13: Z14767 (designed binder)
chain: AQHDEALEVDAKYAKEEHHAWREIHLLPNLTVDQMAAFITKLFDDPSQSSELLSEAKKLNDSQAPKVDYVLAEAKVLANRELDKYGVSDYYKNLINNAKTVEGVKALIDEILAALPYVPG
notes: as for B1
The molecule B13 yielded an EC50 of 0.24 nM.

B14: Z14992 (designed binder)
chain: AQHDEALEVDAKYAKEERNAWTEIHLLPNLTIEQMAAFITKLFDDPSQSSELLSEAKKLNDSQAPKVDYVLAEAKVLANRELDKYGVSDYYKNLINNAKTVEGVKALIDEILAALPYVPG
notes: as for B1
Turning to B14, it took 0.28 nM to reach a half-maximal effect (EC50).

B15: Z14868 (designed binder)
chain: AQHDEALEVDAKYAKEEYEAWYEIHLLPNLTIQQMAAFISKLFDDPSQSSELLSEAKKLNDSQAPKVDYVLAEAKVLANRELDKYGVSDYYKNLINNAKTVEGVKALIDEILAALPYVPG
notes: as for B1
The molecule B15 gave an EC50 of 0.28 nM.

B16: Z14784 (designed binder)
chain: AQHDEALEVDAKYAKEEKHAWMEIHKLPNLTVDQMAAFITKLFDDPSQSSELLSEAKKLNDSQAPKVDYVLAEAKVLANRELDKYGVSDYYKNLINNAKTVEGVKALIDEILAALPYVPG
notes: as for B1
Take B16: the EC50 stood at 0.25 nM.

B17: Z14829 (designed binder)
chain: AQHDEALEVDAKYAKEERKAWVEIHNLPNLTVDQMAAFITKLFDDPSQSSELLSEAKKLNDSQAPKVDYVLAEAKVLANRELDKYGVSDYYKNLINNAKTVEGVKALIDEILAALPYVPG
notes: as for B1
In the case of B17, the 50% effective concentration (EC50) turned out to be 0.27 nM.

B18: Z14862 (designed binder)
chain: AQHDEALEVDAKYAKEEAAAWREIHLLPNLTIDQMAAFITKLFDDPSQSSELLSEAKKLNDSQAPKVDYVLAEAKVLANRELDKYGVSDYYKNLINNAKTVEGVKALIDEILAALPYVPG
notes: as for B1
As to B18, a half-maximal effect (EC50) was put at 0.22 nM.

B19: Z14861 (designed binder)
chain: AQHDEALEVDAKYAKEERKAWIEIHNLPNLTIDQMAAFITKLFDDPSQSSELLSEAKKLNDSQAPKVDYVLAEAKVLANRELDKYGVSDYYKNLINNAKTVEGVKALIDEILAALPYVPG
notes: as for B1
The molecule B19 displayed an EC50 of 0.23 nM.

B20: Z14944 (designed binder)
chain: AQHDEALEVDAKYAKEERKAWYEIHLLPNLTIDQMAAFITKLFDDPSQSSELLSEAKKLNDSQAPKVDYVLAEAKVLANRELDKYGVSDYYKNLINNAKTVEGVKALIDEILAALPYVPG
notes: as for B1
Regarding B20, a half-maximal response (EC50) required 0.19 nM.

B21: Z14765 (designed binder)
chain: AQHDEALEVDAKYAKEERMAWYEIHTLPNLTVEQMAAFITKLFDDPSQSSELLSEAKKLNDSQAPKVDYVLAEAKVLANRELDKYGVSDYYKNLINNAKTVEGVKALIDEILAALPYVPG
notes: as for B1
The molecule B21 gave an EC50 of 0.27 nM.

B22: Z14878 (designed binder)
chain: AQHDEALEVDAKYAKEEYHAWVEIHNLPNLTIDQMAAFITKLFDDPSQSSELLSEAKKLNDSQAPKVDYVLAEAKVLANRELDKYGVSDYYKNLINNAKTVEGVKALIDEILAALPYVPG
notes: as for B1
Molecule B22 returned an EC50 of 0.29 nM.

B23: Z14731 (designed binder)
chain: AQHDEALEVDAKYAKEEKAAWYEIHLLPNLTIEQMAAFISKLFDDPSQSSELLSEAKKLNDSQAPKVDYVLAEAKVLANRELDKYGVSDYYKNLINNAKTVEGVKALIDEILAALPYVPG
notes: as for B1
Take B23: the EC50 is 0.21 nM.

B24: Z15003 (designed binder)
chain: AQHDEALEVDAKYAKEEYKAWLEIHNLPNLTVDQMAAFITKLFDDPSQSSELLSEAKKLNDSQAPKVDYVLAEAKVLANRELDKYGVSDYYKNLINNAKTVEGVKALIDEILAALPYVPG
notes: as for B1
The molecule B24 had an EC50 of 0.3 nM.
